PMC10337067
Results are given in words; binding and its absence hold for the method and conditions named. In cells and extracts the contact can be indirect. Some results given as binding are weak or reduced against the parent protein; the word gives no strength.

Protein sequences, listed by entry. Tags and fused reporters are not part of them.
UniProt Q7TSE9: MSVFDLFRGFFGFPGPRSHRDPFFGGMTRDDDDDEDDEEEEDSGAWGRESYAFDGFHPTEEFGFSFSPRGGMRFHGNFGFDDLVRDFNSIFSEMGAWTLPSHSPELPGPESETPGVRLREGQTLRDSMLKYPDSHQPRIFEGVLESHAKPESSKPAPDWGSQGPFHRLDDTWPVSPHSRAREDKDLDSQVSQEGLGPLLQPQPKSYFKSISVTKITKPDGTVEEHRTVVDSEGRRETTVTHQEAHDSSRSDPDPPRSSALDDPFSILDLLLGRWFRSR

Target: hematopoietic-lineage substrate-1-associated protein X-1 (HAX1) (rat (endogenous in rat liver tissue)) (UniProt Q7TSE9)
Test: co-IP; rat liver tissue lysate (500 ug protein) incubated with 10 ug anti-HAX1 antibody overnight at 4 C, protein A/G magnetic beads 1 h at room temperature, western blotting; livers of the sham, CS, HOPE and HOPE + AG490 groups of the DCD rat model

binding: binds
Substance: Sarco/endoplasmic reticulum calcium ATPase 2b (SERCA2b) (from UniProt P11507-1 1-1043)
